From US20070178448A1
No constants are given. Whether binding was seen depends on the method and setting. Some entries that bind do so weakly or less than the wild type. Tags and fused reporters may be left off the sequences shown.

Molecular target: streptavidin (UniProt P22629)
Test: phage ELISA, streptavidin coated plate, anti-M13 HRP detection

B1: M13KE-SBP phage prepared in E. coli XL1-Blue (streptavidin binding peptide AGXTLLAHPQ, X = glutamine, as N-terminal pIII fusion) (peptide, not shown: large carriers)
chain: AGQTLLAHPQ
For B1, the binding was “binds”.
